Data reported in publication PMC6204899.

Molecular target: T1, ARGONAUTE1 (Arabidopsis thaliana (endogenous in seedlings)) (UniProt O04379)
T1 sequence: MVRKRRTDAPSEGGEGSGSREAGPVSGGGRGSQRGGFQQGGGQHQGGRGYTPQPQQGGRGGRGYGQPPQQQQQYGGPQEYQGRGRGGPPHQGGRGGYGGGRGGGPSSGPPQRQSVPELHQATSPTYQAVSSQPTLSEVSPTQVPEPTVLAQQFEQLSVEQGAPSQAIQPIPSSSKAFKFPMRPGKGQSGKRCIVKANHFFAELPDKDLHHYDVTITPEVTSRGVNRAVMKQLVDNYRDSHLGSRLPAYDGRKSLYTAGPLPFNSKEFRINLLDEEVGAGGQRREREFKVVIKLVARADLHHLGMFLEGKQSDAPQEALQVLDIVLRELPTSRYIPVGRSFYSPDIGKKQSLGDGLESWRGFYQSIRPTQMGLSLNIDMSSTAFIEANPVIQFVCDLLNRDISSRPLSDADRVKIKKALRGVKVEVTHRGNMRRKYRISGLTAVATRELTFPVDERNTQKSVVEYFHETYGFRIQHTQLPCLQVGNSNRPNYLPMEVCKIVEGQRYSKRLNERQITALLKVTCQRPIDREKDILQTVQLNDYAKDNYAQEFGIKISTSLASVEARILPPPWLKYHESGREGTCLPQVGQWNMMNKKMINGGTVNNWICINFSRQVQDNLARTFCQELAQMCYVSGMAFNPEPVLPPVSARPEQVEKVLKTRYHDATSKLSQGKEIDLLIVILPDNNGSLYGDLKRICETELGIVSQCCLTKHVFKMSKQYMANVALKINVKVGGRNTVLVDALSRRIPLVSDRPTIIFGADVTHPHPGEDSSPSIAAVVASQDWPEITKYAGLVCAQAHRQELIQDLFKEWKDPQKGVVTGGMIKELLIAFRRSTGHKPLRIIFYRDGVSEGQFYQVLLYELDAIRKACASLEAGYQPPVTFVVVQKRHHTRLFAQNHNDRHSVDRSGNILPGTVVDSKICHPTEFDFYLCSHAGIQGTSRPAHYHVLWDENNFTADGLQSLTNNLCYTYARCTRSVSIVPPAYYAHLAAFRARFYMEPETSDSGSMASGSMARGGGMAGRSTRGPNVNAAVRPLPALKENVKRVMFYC
Experiment: affinity purification with mass spectrometry; large-scale immunoaffinity purification with native AGO1 antibody from deoxycholate-solubilized microsome fractions of formaldehyde cross-linked 16-day-old seedlings; peptide elution; cross-links reversed; LC-MS/MS; mock immunopurification as control

binding: binds
B1: J3 (farnesylated heat shock protein 40 homolog) (protein, UniProt Q94AW8 1-420)
chain: MFGRGPSKKSDNTKFYEILGVPKSASPEDLKKAYKKAAIKNHPDKGGDPEKFKELAQAYEVLSDPEKREIYDQYGEDALKEGMGGGGGGHDPFDIFSSFFGGGPFGGNTSRQRRQRRGEDVVHPLKVSLEDVYLGTMKKLSLSRNALCSKCNGKGSKSGASLKCGGCQGSGMKVSIRQLGPGMIQQMQHACNECKGTGETINDRDRCPQCKGDKVIPEKKVLEVNVEKGMQHSQKITFEGQADEAPDTVTGDIVFVLQQKEHPKFKRKGEDLFVEHTLSLTEALCGFQFVLTHLDGRSLLIKSNPGEVVKPDSYKAISDEGMPIYQRPFMKGKLYIHFTVEFPDSLSPDQTKALEAVLPKPSTAQLSDMEIDECEETTLHDVNIEDEMRRKAQAQREAYDDDDEDDDHPGGAQRVQCAQQ
modifications: farnesylated in planta (C-terminal CAAX motif; J3 farnesylation site C417)

Results are given in words; binding and its absence hold for the method and conditions named. In cells and extracts the contact can be indirect. Here binding means that the protein was enriched with, or labelled near, the bait; the list need not be complete.
